In US8841077B2, “Biomarkers for amyotrophic lateral sclerosis and methods using the same” (Massachusetts General Hospital, priority 2006, dated 2014):

Experiments:
[1] = Metabolomic profiling of blood plasma, 62 ALS subjects vs 62 control subjects (Example 3; Tables 7, 8); type: in vivo, human; conditions: blood plasma
[2] = Metabolomic profiling (GC-MS/LC-MS) of CSF samples, ALS subjects vs control subjects (Example 1; Tables 3, 4); type: in vivo, human; conditions: CSF
[3] = ALS mean level compared to control mean level, positive = increase in ALS
[4] = ALS mean level vs control mean level, 62 ALS vs 62 control subjects, analytical platform LC-MS
[5] = ALS mean level vs control mean level, 62 ALS vs 62 control subjects, analytical platform GC-MS
[6] = ALS mean as compared to control mean, T-tests of ALS vs. Controls
[7] = ALS mean as compared to the control mean
[8] = mean in ALS samples as compared to control samples
[9] = mean in ALS samples vs control samples, T-tests

Molecule | % change in ALS [1, 3] | % change in ALS [1, 4] | % change in ALS [1, 5] | % change in ALS [2, 6] | % change in ALS [2, 7] | Increase (+) or Decrease (−) in ALS [2, 8] | Increase (+) or Decrease (−) in ALS [2, 9]
O=Cc1ccc(O)cc1 | 12% | 12% |  |  |  |  | 
CC(O)C(=O)O (stereo not shown) [Metabolite - 2694 retired: lactate] | −3% | −3% |  |  |  |  | 
CC(=O)NCCc1c[nH]c2ccc(O)cc12 [N-acetylserotonin] | −8% |  | −8% |  |  |  | 
O=C(O)CNC(=O)c1ccccc1 [Metabolite - 3604 retired: CL adduct of hippuric acid] | 1% |  |  |  |  |  | 
C[N+](C)(C)CCCC[C@H](N)C(=O)[O-] [Metabolite N-6-trimethyl-l-lysine] | −34% | −34% |  |  |  |  | 
CCCCCCCCCCCCCCCCO [Metabolite 1-Hexadecanol, 1-Hexadecanol] | −16% |  | −16% |  |  |  | 
C[C@H](CCC(=O)NCC(=O)O)[C@H]1CC[C@H]2[C@@H]3[C@H](O)C[C@@H]4C[C@H](O)CC[C@]4(C)[C@H]3C[C@H](O)[C@]12C | 39% | 39% |  |  |  |  | 
O=C(O)CCCCCCCC(=O)O [Metabolite - 3881 retired: azelaic acid] | −29% | −29% |  |  |  |  | 
O=C(O)[C@H](O)COP(=O)(O)O [Metabolite 3-phospho-d-glycerate, 3-phospho-d-glycerate] | −1% |  |  |  |  |  | 
OC[C@@H](O)[C@@H](O)[C@H](O)[C@H](O)CO [Mannitol] | 38% |  | 38% |  |  |  | 
O=C1O[C@H]([C@@H](O)CO)C(O)=C1O [ascorbic acid] | −12% | −12% |  |  |  |  | 
CCCCCCCC/C=C/CCCCCCCC(=O)O [elaidic acid] | 9% |  | 9% |  |  |  | 
NC(=O)N[C@@H](CC(=O)O)C(=O)O [N-carbamoyl-L-aspartate] | 54% | 54% |  |  |  |  | 
vitamin-B6 | 5% |  | 5% |  |  |  | 
CC(O)C(=O)O (stereo not shown) [Metabolite - 2563 retired: lactate] | −1% |  |  |  |  |  | 
O=CC(O)CO (stereo not shown) [Glyceraldehydes] | 38% |  | 38% |  |  |  | 
O=c1[nH]cnc2c1ncn2[C@H]1C[C@H](O)[C@@H](CO)O1 [Metabolite 2-deoxyinosine] | 293% | 293% |  |  |  |  | 
NC(N)=NCC(=O)O [guanidineacetic acid] | −5% | −5% |  |  |  |  | 
NC(=O)c1cccnc1 [Niacinamide] | 14% | 14% |  |  |  |  | 

Molecule | % change in ALS [1, 3] | % change in ALS [1, 4] | % change in ALS [1, 5] | % change in ALS [2, 6] | % change in ALS [2, 7] | Increase (+) or Decrease (−) in ALS [2, 8] | Increase (+) or Decrease (−) in ALS [2, 9]
CN(C)C(N)=NCCC[C@H](N)C(=O)O [N-N-dimethylarginine] | −8% | −8% |  |  |  |  | 
NCCc1ccc(O)cc1 [Tyramine] | 15% |  | 15% |  |  |  | 
C[C@H](O)[C@H](N)C(=O)O [L-allo-threonine] | −17% |  | −17% |  |  |  | 
O=C1CC[C@@H](C(=O)O)N1 [Metabolite - 3894 retired: pyroglutamic acid (5-oxoproline)-] | 4% | 4% |  |  |  |  | 
CC[C@H](O)C(=O)O | 21% |  | 21% |  |  |  | 
CCCCCCCCCCCCCC(=O)O [Tetradecanoic acid - 9, Tetradecanoic acid] |  |  |  | 14% | 14% | + | +
NCCO [monoethanolamine- 9, monoethanolamine] |  |  |  | −7% |  |  | −
O=P(O)(O)OC(CO)CO [glycerol-2-phosphate (Metabolite - 1820) - 35] |  |  |  | 19% |  |  | +
CNCC(=O)O [Sarcosine - 9, Sarcosine] |  |  |  | −4% | −4% | − | −
CC(CN)C(=O)O (stereo not shown) [3-amino-isobutyrate - 9, 3-amino-isobutyrate] |  |  |  | 31% | 31% | + | +
NCCCC[C@H](N)C(=O)O [Lysine - 9, Lysine] |  |  |  | 17% | 17% | + | +
CCCCCCCCCCCCCCCCO [1-Hexadecanol - 9] |  |  |  |  | 3% | + | 
O=C(O)/C=C/C(=O)O [Fumaric acid - 9, Fumaric acid] |  |  |  | 7% | 7% | + | +
O=C1CCNC(=O)N1 [5-6-dihydrouracil - 35, 5-6-dihydrouracil] |  |  |  | 7% | 7% | + | +
O=CC(=O)O [Glyoxylate - 9, Glyoxylate] |  |  |  | −4% | −4% | − | −
NC(=O)NCCC[C@H](N)C(=O)O [Citrulline] |  |  |  |  |  |  | +
CC(C)CCC[C@@H](C)[C@H]1CC[C@H]2[C@@H]3CC=C4C[C@@H](O)CC[C@]4(C)[C@H]3CC[C@]12C [Cholesterol - 9, Cholesterol] |  |  |  | 5% | 5% | + | +
CN(C)[C@@H](CCCNC(=N)N)C(=O)O [N,N-dimethylarginine] |  |  |  | 24% |  |  | +
Nc1ccccc1C(=O)CC(N)C(=O)O (stereo not drawn) [alpha-2-diamino-gamma-oxobenzenebutanoic acid] |  |  |  | 76% | 76% | + | +

Molecule | % change in ALS [1, 3] | % change in ALS [1, 4] | % change in ALS [1, 5] | % change in ALS [2, 6] | % change in ALS [2, 7] | Increase (+) or Decrease (−) in ALS [2, 8] | Increase (+) or Decrease (−) in ALS [2, 9]
N=C(N)NCCC[C@H](N)C(=O)O [Arginine - 35, Arginine] |  |  |  | 7% | 7% | + | +
O=C(O)[C@H](O)COP(=O)(O)O [3-phospho-d-glycerate - 9, 3-phospho-d-glycerate] |  |  |  | −3% | −3% | − | −
NC(=O)N[C@@H](CC(=O)O)C(=O)O [N-carbamoyl-L-aspartate - 35, N-carbamoyl-L-aspartate] |  |  |  | 13% | 13% | + | +
CCCCC(CC)C(=O)O (stereo not shown) [2-ethylhexanoic acid - 9, 2-ethylhexanoic acid] |  |  |  | 82% | 82% | + | +
N[C@@H](Cc1c[nH]cn1)C(=O)O [Histidine - 35, Histidine] |  |  |  | −10% | −10% | − | −
O=C(O)C(=O)CS [Mercaptopyruvate - 35, Mercaptopyruvate] |  |  |  | −7% | −7% | − | −
O=C(O)CCCC(=O)O [Pentanedioic acid - 9] |  |  |  |  | 1% | + | 
Nc1ncnc2c1ncn2C1CC(O)C(CO)O1 (stereo not shown) [2-deoxyadenosine - 35, 2-deoxyadenosine] |  |  |  | 10% | 10% | + | +
Vitamin-B6 [Vitamin-B6 - 9] |  |  |  | −2% | −2% | − | −
NCCC(=O)N[C@@H](Cc1cnc[nH]1)C(=O)O [Carnosine - 35, Carnosine] |  |  |  | −8% | −8% | − | −
NC(=O)CC[C@H](NC(=O)CC[C@H](N)C(=O)O)C(=O)O [gamma-L-glutamyl-L-glutamine - 35, gamma-L-glutamyl-L-glutamine] |  |  |  | 16% | 16% | + | +
C[C@@H](O)[C@H](N)C(=O)O [Threonine - 9, Threonine] |  |  |  | −3% | −3% | − | −
N[C@@H](C[Se][Se]C[C@H](N)C(=O)O)C(=O)O [Selenocystine - 35, Selenocystine] |  |  |  | 7% | 7% | + | +
O=CC[C@H](O)[C@H](O)CO [2-deoxy-D-ribose-35, 2-deoxy-D-ribose] |  |  |  | 12% |  |  | +
N[C@@H](COP(=O)(O)O)C(=O)O [3-phospho-l-serine - 9, 3-phospho-l-serine] |  |  |  | 0% | 0% |  | 
NC(=O)NC1NC(=O)NC1=O (stereo not shown) [Allantoin - 35, Allantoin] |  |  |  | 7% | 7% | + | +
C=C(OP(=O)(O)O)C(=O)O [Phosphoenolpyruvate - 35, Phosphoenolpyruvate] |  |  |  | −2% | −2% | − | −
NCCO [Monoethanolamine - 9] |  |  |  |  | −7% | − | 
